Values from PubChem BioAssay AID652259 (Drosophila RNAi Screening Center, 2013)
The screen tested about 22,000 reagents; shown is a random part of those with a known target gene and a result. Of all reagents, 233 (1.1%) got an active call. 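Light values are raw, unnormalised plate reads; the ratio scores behind the reporter calls were not deposited.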 The numbers tell different reagents against one gene apart. No sequences are given here. The record does not give: the amount of reagent, the time to read-out, the dose of the treatment.

- Assay: 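Genome-wide hunt for genes that control Wingless pathway activity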 (primary screen)
- System: Drosophila clone 8 imaginal disc epithelial cells
- Knock-down reagent: long dsRNA against Drosophila genes
- Conditions: pathway stimulated by co-transfected Wingless expression plasmid
- Measurement: 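Firefly luciferase from a tcf-site Wingless reporter, measured alongside co-transfected Renilla luciferase that tracks transfection; pathway stimulated by a Wingless plasmid; the firefly-to-Renilla ratio is not deposited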
- Scale: firefly reporter light: higher = more Wg reporter light, before normalisation; Renilla control light: higher = more transfected or surviving cells
- Call rule: 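Strong candidates differ from their plate mean by at least two out of four per-plate statistical tests; weak candidates meet just one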
- Calls: active = candidate regulator (raises or lowers reporter); inactive = not a candidate

Gene | dsRNA no. | reporter change call, replicate 1 | firefly reporter light, replicate 1 | firefly reporter light, replicate 2 | Renilla control light, replicate 1 | Renilla control light, replicate 2 | Call
CG17883 | 1 | – | 3936 | – | 2224 | – | inactive
jbug (jitterbug) | 1 | – | 16896 | – | 8188 | – | inactive
jbug (jitterbug) | 2 | – | 7584 | – | 2603 | – | inactive
jbug (jitterbug) | 3 | – | 3345 | 8135 | 797 | 3945 | inactive
jbug (jitterbug) | 4 | – | 2475 | 7642 | 922 | 2615 | inactive
CG15812 | 1 | – | 4604 | – | 2308 | – | inactive
nenya | 1 | – | 3399 | – | 1440 | – | inactive
ENGase (Endo-beta-N-acetylglucosaminidase) | 1 | – | 2746 | – | 1223 | – | inactive
ENGase (Endo-beta-N-acetylglucosaminidase) | 2 | – | 13425 | – | 6912 | – | inactive
Tim17b1 | 1 | – | 16541 | – | 5089 | – | inactive
CG9393 | 1 | – | 4328 | – | 1837 | – | inactive
nop5 | 1 | – | 2170 | 6297 | 871 | 1057 | inactive
CG14971 | 1 | – | 5048 | – | 1722 | – | inactive
CG2006 | 1 | – | 3186 | 10761 | 1557 | 3958 | inactive
Dhx15 (DEAH-box helicase 15) | 1 | – | 16801 | – | 3520 | – | inactive
CG17270 | 1 | – | 2986 | 8872 | 1225 | 2393 | inactive
CG9377 | 1 | – | 6608 | – | 2086 | – | inactive
CG9395 | 1 | – | 3757 | 8075 | 1942 | 3443 | inactive
CG8813 | 1 | – | 10161 | – | 3514 | – | inactive
ND-B14.7 (NADH dehydrogenase (ubiquinone) B14.7 subunit) | 1 | – | 2362 | 6468 | 802 | 2896 | inactive
Spn43Ab (Serpin 43Ab) | 1 | – | 1837 | 4602 | 418 | 2277 | inactive
CG4338 | 1 | – | 4791 | – | 2362 | – | inactive
wb (wing blister) | 1 | – | 11463 | – | 2587 | – | inactive
wb (wing blister) | 2 | – | 1811 | 5584 | 929 | 2151 | inactive
Mob2 | 1 | – | 4389 | – | 354 | – | inactive
Mob2 | 2 | – | 3460 | – | 1436 | – | inactive
Mob2 | 3 | – | 8406 | – | 1908 | – | inactive
foxo (forkhead box, sub-group O) | 1 | – | 2320 | – | 279 | – | inactive
foxo (forkhead box, sub-group O) | 2 | – | 6613 | – | 2483 | – | inactive
TfIIEalpha (Transcription factor IIEalpha) | 1 | – | 4357 | – | 1810 | – | inactive
CG2818 | 1 | – | 12448 | – | 5499 | – | inactive
lncRNA:CR31781 (long non-coding RNA:CR31781) | 1 | – | 8198 | – | 3488 | – | inactive
lncRNA:CR31781 (long non-coding RNA:CR31781) | 2 | – | 2804 | 4615 | 1298 | 3559 | inactive
CG2186 | 1 | – | 3453 | 9787 | 921 | 2448 | inactive
c12.1 | 1 | – | 30992 | – | 7402 | – | inactive
TwdlW (TweedleW) | 1 | – | 16540 | – | 3640 | – | inactive
CG3184 | 1 | – | 2289 | 10556 | 688 | 2037 | inactive
CG7300 | 1 | – | 9186 | – | 2599 | – | inactive
CG16972 | 1 | – | 16330 | – | 2349 | – | inactive
CG12912 | 1 | – | 1063 | 2161 | 132 | 349 | inactive
CG13933 | 1 | – | 14333 | – | 3941 | – | inactive
Dim1 | 1 | – | 1842 | 3706 | 509 | 1625 | inactive
Enoph (Enolase-phosphatase) | 1 | – | 17020 | – | 3574 | – | inactive
Hydr1 (alpha/beta hydrolase 1) | 1 | – | 3427 | – | 729 | – | inactive
CysRS-m (Cysteinyl-tRNA synthetase, mitochondrial) | 1 | – | 9740 | – | 2985 | – | inactive
ghi (ghiberti) | 1 | – | 5337 | 7.42e5 | 2593 | 3.69e5 | inactive
CG34198 | 1 | – | 15473 | – | 8348 | – | inactive
Mur11Da (Mucin related 11Da) | 1 | – | 4354 | – | 1355 | – | inactive
Lcp65Ad | 1 | – | 1323 | 8644 | 1056 | 3768 | inactive
dmpd (dampened) | 1 | – | 8112 | – | 2759 | – | inactive
CG32432 | 1 | – | 18412 | – | 1589 | – | inactive
CG32432 | 2 | Wg reporter activity raised | 14150 | – | 1676 | – | active
CG32432 | 3 | – | 17223 | – | 5280 | – | inactive
CG30161 | 1 | – | 5.93e5 | 6.49e5 | 1.30e5 | 1.34e5 | inactive
CG43322 | 1 | – | 2617 | 4273 | 928 | 1814 | inactive
Hacl (2-hydroxyacyl-CoA lyase) | 1 | – | 16929 | – | 5290 | – | inactive
Prosalpha4 (Proteasome alpha4 subunit) | 1 | – | 15959 | – | 9597 | – | inactive
CG6191 | 1 | – | 10530 | – | 1815 | – | inactive
AttD (Attacin-D) | 1 | – | 2344 | – | 852 | – | inactive
e(y)2b (enhancer of yellow 2b) | 1 | – | 22181 | – | 5596 | – | inactive
CG30485 | 1 | – | 6104 | – | 2109 | – | inactive
B9d1 | 1 | – | 15473 | – | 4466 | – | inactive
Jhedup (Juvenile hormone esterase duplication) | 1 | – | 6211 | – | 2228 | – | inactive
l(2)SH0834 (lethal (2) SH0834) | 1 | – | 2226 | 6288 | 717 | 2411 | inactive
CG17944 | 1 | – | 16548 | – | 4460 | – | inactive
CG8170 | 1 | – | 2944 | 5545 | 1046 | 2952 | inactive
CG6569 | 1 | – | 35477 | – | 6714 | – | inactive
lncRNA:CR31526 (long non-coding RNA:CR31526) | 1 | – | 4.54e5 | 5.16e5 | 2.12e5 | 1.99e5 | inactive
CG15710 | 1 | – | 6563 | – | 2280 | – | inactive
CG4074 | 1 | – | 18520 | – | 4657 | – | inactive
lmd (lame duck) | 1 | – | 2176 | 4885 | 1178 | 1688 | inactive
CG46385 | 1 | – | 4096 | – | 419 | – | inactive
CG46385 | 2 | – | 2572 | 5268 | 988 | 2352 | inactive

Sorted by “Renilla control light, replicate 1” (highest first): 3 of the entries above.
Gene | dsRNA no. | reporter change call, replicate 1 | firefly reporter light, replicate 1 | firefly reporter light, replicate 2 | Renilla control light, replicate 1 | Renilla control light, replicate 2 | Call
B9d1 | 1 | – | 15473 | – | 4466 | – | inactive
Jhedup (Juvenile hormone esterase duplication) | 1 | – | 6211 | – | 2228 | – | inactive
l(2)SH0834 (lethal (2) SH0834) | 1 | – | 2226 | 6288 | 717 | 2411 | inactive
